Test results taken from the supplement of paper PMC3682954.
Structures can show the parent of a compound that is named as a salt. ± gives the standard deviation of the averaged measurements. The list shows a part of the results. Single values are uncertain, as repeats are few or missing.

System: RAW 264.7
Assay: HMGB1-induced TNF-alpha production relative to HMGB1-stimulated control; higher = more TNF-alpha secretion (less inhibition)
Conditions: stimulus: HMGB1 5 ug/ml, 18 h
[1] = compound concentration: 1 ug/ml

SMILES	HMGB1-induced TNF-alpha production (compound concentration: 3 uM) [%]	HMGB1-induced TNF-alpha production [1] [%]
N[C@H](C(=O)O)[C@H](Cc1ccccc1)C(=O)O [L-Beta-threo-benzyl-aspartate]	110	–
CCn1cc(C(=O)O)c(=O)c2cc(F)c(N3CCNCC3)cc21 [Norfloxacin]	82 ± 3.6	–
CCn1cc(C(=O)O)c(=O)c2cc(F)c(N3CCNCC3)cc21	95.6	–
CN(C)c1nc(N)c(C(=O)NC(=N)N)nc1Cl [5-(N,N-Dimethyl)amiloride hydrochloride]	76.4	–
O=C(c1ccc(OCCN2CCCCC2)cc1)c1c(-c2ccc(O)cc2)sc2cc(O)ccc12	81.9	–
O=C(c1ccc(OCCN2CCCCC2)cc1)c1c(-c2ccc(O)cc2)sc2cc(O)ccc12 [Raloxifene hydrochloride]	101 ± 6	–
O=C(c1ccc(OCCN2CCCCC2)cc1)c1c(-c2ccc(O)cc2)sc2cc(O)ccc12 [Raloxifene]	62.3	–
CC(CN1c2ccccc2Sc2ccccc21)N(C)C (stereo not drawn) [Promethazine hydrochloride]	115 ± 0.4	–
CC(CN1c2ccccc2Sc2ccccc21)N(C)C (stereo not drawn)	80.9	–
CC(CN1c2ccccc2Sc2ccccc21)N(C)C (stereo not drawn) [Promethazine]	93.8	–
O=C(CCCCCCCCCCCCC1CCCC1)Nc1ccc(S(=O)(=O)c2ccc(NC(=O)CCCCCCCCCCCCC3CCCC3)cc2)cc1	87.9	–
NS(=O)(=O)c1cc2c(cc1C(F)(F)F)NC(Cc1ccccc1)NS2(=O)=O (stereo not drawn) [Bendroflumethiazide]	85.1	–
NS(=O)(=O)c1cc2c(cc1C(F)(F)F)NC(Cc1ccccc1)NS2(=O)=O (stereo not drawn)	104	–
COc1ccccc1CNCCCCCCNCCCCCCCCNCCCCCCNCc1ccccc1OC [Methoctramine tetrahydrochloride]	93.5	–
Nn1nnc2ccccc21 [1-Aminobenzotriazole]	97.1	–
CN(C)CCCC1(c2ccc(F)cc2)OCc2cc(C#N)ccc21 (stereo not drawn) [Citalopram Hydrobromide]	116	–
CN(C)CCCC1(c2ccc(F)cc2)OCc2cc(C#N)ccc21 (stereo not drawn) [Citalopram hydrobromide]	89.6 ± 10	–
CN(C)CCCC1(c2ccc(F)cc2)OCc2cc(C#N)ccc21 (stereo not drawn) [Citalopram]	97.9	–
CN(C)CCCC1(c2ccc(F)cc2)OCc2cc(C#N)ccc21 (stereo not drawn)	81.8	–
CCCC(CCC)C(=O)O	80.6	–
CCCC(CCC)C(=O)O [Valproic acid sodium]	103	–
CCCC(CCC)C(=O)O [Valproic acid]	102 ± 13	–

A portion of the results above, for reference:
SMILES	HMGB1-induced TNF-alpha production (compound concentration: 3 uM) [%]	HMGB1-induced TNF-alpha production [1] [%]
CN(C)CCCC1(c2ccc(F)cc2)OCc2cc(C#N)ccc21 (stereo not drawn) [Citalopram Hydrobromide]	116	–
CN(C)CCCC1(c2ccc(F)cc2)OCc2cc(C#N)ccc21 (stereo not drawn) [Citalopram hydrobromide]	89.6 ± 10	–
CN(C)CCCC1(c2ccc(F)cc2)OCc2cc(C#N)ccc21 (stereo not drawn) [Citalopram]	97.9	–
CN(C)CCCC1(c2ccc(F)cc2)OCc2cc(C#N)ccc21 (stereo not drawn)	81.8	–
CCCC(CCC)C(=O)O	80.6	–
CCCC(CCC)C(=O)O [Valproic acid sodium]	103	–

Following part

SMILES	HMGB1-induced TNF-alpha production (compound concentration: 3 uM) [%]	HMGB1-induced TNF-alpha production [1] [%]
Cc1onc(-c2ccccc2)c1C(=O)N[C@@H]1C(=O)N2[C@@H]1SC(C)(C)[C@@H]2C(=O)O	87.2	–
Cc1onc(-c2ccccc2)c1C(=O)N[C@@H]1C(=O)N2[C@@H]1SC(C)(C)[C@@H]2C(=O)O [Oxacillin]	85.9	–
O=C(O)CNC(=O)C(CS)Cc1ccccc1 (stereo not drawn) [Thiorphan]	107	–
CN1Cc2sccc2C(c2ccc(O)c(O)c2)C1 (stereo not drawn)	88.2	–
COc1ccccc1N1CCN(CCN2C(=O)CC3(CCCC3)CC2=O)CC1 [BMY 7378 dihydrochloride]	84.7	–
OCC(O)CN1CCN(c2ccccc2)CC1 (stereo not drawn)	78.3	–
CN(C)CCC(c1ccc(Cl)cc1)c1ccccn1 (stereo not drawn) [Chlorpheniramine]	97.2 ± 23	–
CN(C)CCC(c1ccc(Cl)cc1)c1ccccn1 (stereo not drawn) [Chlorpheniramine maleate]	69.4	–
C[C@H](O)C(=O)C1=Nc2c(nc(N)[nH]c2=O)NC1 [Sepiapterin]	106	–
COc1cc(N)c(Cl)cc1C(=O)NC1CCN(CCCOc2ccc(F)cc2)CC1OC (stereo not drawn) [Cisapride]	83.5 ± 28	–
N[C@H](Cc1ccc2ccccc2c1)C(=O)O [3-(2-Naphthyl)-D-alanine]	–	89.4
CC(C)(C)c1cc(/C=C(\C#N)C(N)=S)cc(C(C)(C)C)c1O [Tyrphostin AG 879]	165	–
COC1=CC(=O)C[C@@H](C)[C@]12Oc1c(Cl)c(OC)cc(OC)c1C2=O	90.5 ± 1.2	–
COC1=CC(=O)C[C@@H](C)[C@]12Oc1c(Cl)c(OC)cc(OC)c1C2=O [Griseofulvin]	74.6	60.8
COc1ccc(-c2coc3cc(O)cc(O)c3c2=O)cc1 [Biochanin A]	–	53.3
COC(=O)Nc1nc2cc(C(=O)c3ccc(F)cc3)ccc2[nH]1 [Flubendazole]	84.9	–
COC(=O)Nc1nc2cc(C(=O)c3ccc(F)cc3)ccc2[nH]1 [Flubendazol]	124	–
COC(=O)Nc1nc2cc(C(=O)c3ccc(F)cc3)ccc2[nH]1	125	–
CCOC(=O)c1ccc(O)cc1	83.1	–
CC(=O)O[C@H]1Cc2ccccc2N(C(N)=O)c2ccccc21	91.5	–
O=C(O[C@@H]1C[C@@H]2C[C@H]3C[C@H](C1)N2CC3=O)c1c[nH]c2ccccc12	110	–
O=C(O[C@@H]1C[C@@H]2C[C@H]3C[C@H](C1)N2CC3=O)c1c[nH]c2ccccc12 [Dolasetron]	100	–

SMILES	HMGB1-induced TNF-alpha production (compound concentration: 3 uM) [%]	HMGB1-induced TNF-alpha production [1] [%]
O=C(O)c1ccccc1Nc1cccc(OCc2ccc3ccccc3n2)c1	111	–
CC(C)(C)NC(=O)[C@@H]1CN(Cc2cccnc2)CCN1C[C@@H](O)C[C@@H](Cc1ccccc1)C(=O)N[C@H]1c2ccccc2C[C@H]1O	43.2	–
COc1ccc2cc1Oc1ccc(cc1)C[C@H]1c3c(cc4c(c3Oc3cc5c(cc3OC)CCN(C)[C@@H]5C2)OCO4)CCN1C	83	–
CCCCCCCC/C=C\CCCCCCCC(=O)O [Oleic Acid]	103	–
CC(C)(C)NCC(O)c1ccc(O)c(CO)c1 (stereo not drawn)	51.3	–
CC(C)(C)NCC(O)c1ccc(O)c(CO)c1 (stereo not drawn) [Albuterol hemisulfate]	60.3	–
CC(C)(C)NCC(O)c1ccc(O)c(CO)c1 (stereo not drawn) [Salbutamol]	58.8 ± 29	–
Cc1c(OCC(F)(F)F)ccnc1C[S+]([O-])c1nc2ccccc2[nH]1 (stereo not drawn)	73.9 ± 11	–
Cc1c(OCC(F)(F)F)ccnc1C[S+]([O-])c1nc2ccccc2[nH]1 (stereo not drawn) [Lansoprazole]	106 ± 24	–
[N-]=[N+]=Nc1ccc(C(=O)CSC[C@H](NC(=O)CC[C@H](N)C(=O)O)C(=O)NCC(=O)O)cc1 [S-(p-Azidophenacyl)glutathione]	87.1	–
Cn1c(=O)c2c(ncn2C)n(C)c1=O	75.2	–
Cn1c(=O)c2c(ncn2C)n(C)c1=O [Caffeine]	94.1 ± 15	62.4
O=C(O)C[C@H](O)C[C@H](O)/C=C/c1c(C2CC2)nc2ccccc2c1-c1ccc(F)cc1	163	–
Cc1ccc(C)c(OCCCC(C)(C)C(=O)O)c1 [Gemfibrozil]	98.1 ± 2.2	–
Cc1ccc(C)c(OCCCC(C)(C)C(=O)O)c1	93.3	–
O=c1[nH]c2cc(Cl)ccc2c(O)c1-c1cccc(Oc2ccccc2)c1	116	–
O=C(CCCN1CCC(O)(c2ccc(Cl)cc2)CC1)c1ccc(F)cc1 [Haloperidol]	87.4 ± 22	–
O=C(CCCN1CCC(O)(c2ccc(Cl)cc2)CC1)c1ccc(F)cc1	70.8	–
NC(=O)c1ccc[n+]([C@@H]2O[C@H](COP(=O)([O-])OP(=O)(O)OC[C@H]3O[C@@H](n4cnc5c(N)ncnc54)[C@H](O)[C@@H]3O)[C@@H](O)[C@H]2O)c1 [Nadide]	94.6	–
NC(=O)c1ccc[n+]([C@@H]2O[C@H](COP(=O)([O-])OP(=O)(O)OC[C@H]3O[C@@H](n4cnc5c(N)ncnc54)[C@H](O)[C@@H]3O)[C@@H](O)[C@H]2O)c1	91.7	–
CNCCC=C1c2ccccc2C=Cc2ccccc21 [Norcyclobenzaprine]	58.6	–
NCC(=O)CCC(=O)O	78.9	–

SMILES	HMGB1-induced TNF-alpha production (compound concentration: 3 uM) [%]	HMGB1-induced TNF-alpha production [1] [%]
COc1ccc(CN(CCN(C)C)c2ncccn2)cc1	107	–
N=C(N)SCCc1ccc(CCSC(=N)N)cc1 [1,4-PBIT dihydrobromide]	111	–
Cc1cc2c(OCC(CNC(C)(C)C)OC(=O)c3ccccc3)cccc2[nH]1 (stereo not drawn) [Bopindolol]	103	–
CC1(C)S[C@@H]2[C@H](NC(=O)[C@H](N)c3ccccc3)C(=O)N2[C@H]1C(=O)OC1OC(=O)c2ccccc21 (stereo partly drawn) [Talampicillin hydrochloride]	92.6	–
NC(=O)OCC(O)COc1ccc(Cl)cc1 (stereo not drawn) [Chlorphensin carbamate]	99	–
CC(N)(Cc1ccc(O)cc1)C(=O)O (racemic) [DL-alpha-Methyl-p-tyrosine]	84.7	–
COC(=O)CCc1ccc(OCC(O)CNC(C)C)cc1 (stereo not drawn) [Esmolol hydrochloride]	121	–
COC(=O)CCc1ccc(OCC(O)CNC(C)C)cc1 (stereo not drawn)	98.4	–
COC(=O)CCc1ccc(OCC(O)CNC(C)C)cc1 (stereo not drawn) [Esmolol]	113	–
NCCS	81.4	–
NCCS [Cysteamine hydrochloride]	113	–
COCCOC(=O)C1=C(C)NC(C)=C(C(=O)OC(C)C)C1c1cccc([N+](=O)[O-])c1 (stereo not drawn)	103 ± 12	–
COCCOC(=O)C1=C(C)NC(C)=C(C(=O)OC(C)C)C1c1cccc([N+](=O)[O-])c1 (stereo not drawn) [Nimodipine]	99 ± 9	–
CN1C(C(=O)Nc2ccccn2)=C(O)c2ccccc2S1(=O)=O [Piroxicam]	108 ± 9	–
CN1C(C(=O)Nc2ccccn2)=C(O)c2ccccc2S1(=O)=O	97.2	–
COc1c(C)c2c(c(O)c1C/C=C(\C)CCC(=O)OCCN1CCOCC1)C(=O)OC2 [Mycophenolate mofetil]	20.8	–
COC(=O)[C@@H](N)Cc1ccc(O)c(O)c1 [L-3,4-Dihydroxyphenylalanine methyl ester hydrochloride]	78.2	–
C[C@]12CCC(=O)C=C1C=C[C@@H]1[C@@H]2CC[C@@]2(C)[C@H]1CC[C@@]21CCC(=O)O1	77.4	–
C[C@]12CCC(=O)C=C1C=C[C@@H]1[C@@H]2CC[C@@]2(C)[C@H]1CC[C@@]21CCC(=O)O1 [Canrenone]	90.8 ± 22	–
COc1ccc2c(c1)c(CC(=O)O)c(C)n2Cc1ccc(Cl)cc1 [1-(4-Chlorobenzyl)-5-methoxy-2-methylindole-3-acetic acid]	99.5	–
